Laboratory results reported in patent US20030162221A1.
No constants are given. Whether binding was seen depends on the method and setting. Binding seen in cells or lysates may run through a third protein. Some entries that bind do so weakly or less than the wild type. For part of these data: Sequences can lack the tags named with a protein. Blank lines part the entries; values can stand above or below the binder they belong to.

The chains behind the UniProt entries cited, without tags or fusion partners.
UniProt P22579: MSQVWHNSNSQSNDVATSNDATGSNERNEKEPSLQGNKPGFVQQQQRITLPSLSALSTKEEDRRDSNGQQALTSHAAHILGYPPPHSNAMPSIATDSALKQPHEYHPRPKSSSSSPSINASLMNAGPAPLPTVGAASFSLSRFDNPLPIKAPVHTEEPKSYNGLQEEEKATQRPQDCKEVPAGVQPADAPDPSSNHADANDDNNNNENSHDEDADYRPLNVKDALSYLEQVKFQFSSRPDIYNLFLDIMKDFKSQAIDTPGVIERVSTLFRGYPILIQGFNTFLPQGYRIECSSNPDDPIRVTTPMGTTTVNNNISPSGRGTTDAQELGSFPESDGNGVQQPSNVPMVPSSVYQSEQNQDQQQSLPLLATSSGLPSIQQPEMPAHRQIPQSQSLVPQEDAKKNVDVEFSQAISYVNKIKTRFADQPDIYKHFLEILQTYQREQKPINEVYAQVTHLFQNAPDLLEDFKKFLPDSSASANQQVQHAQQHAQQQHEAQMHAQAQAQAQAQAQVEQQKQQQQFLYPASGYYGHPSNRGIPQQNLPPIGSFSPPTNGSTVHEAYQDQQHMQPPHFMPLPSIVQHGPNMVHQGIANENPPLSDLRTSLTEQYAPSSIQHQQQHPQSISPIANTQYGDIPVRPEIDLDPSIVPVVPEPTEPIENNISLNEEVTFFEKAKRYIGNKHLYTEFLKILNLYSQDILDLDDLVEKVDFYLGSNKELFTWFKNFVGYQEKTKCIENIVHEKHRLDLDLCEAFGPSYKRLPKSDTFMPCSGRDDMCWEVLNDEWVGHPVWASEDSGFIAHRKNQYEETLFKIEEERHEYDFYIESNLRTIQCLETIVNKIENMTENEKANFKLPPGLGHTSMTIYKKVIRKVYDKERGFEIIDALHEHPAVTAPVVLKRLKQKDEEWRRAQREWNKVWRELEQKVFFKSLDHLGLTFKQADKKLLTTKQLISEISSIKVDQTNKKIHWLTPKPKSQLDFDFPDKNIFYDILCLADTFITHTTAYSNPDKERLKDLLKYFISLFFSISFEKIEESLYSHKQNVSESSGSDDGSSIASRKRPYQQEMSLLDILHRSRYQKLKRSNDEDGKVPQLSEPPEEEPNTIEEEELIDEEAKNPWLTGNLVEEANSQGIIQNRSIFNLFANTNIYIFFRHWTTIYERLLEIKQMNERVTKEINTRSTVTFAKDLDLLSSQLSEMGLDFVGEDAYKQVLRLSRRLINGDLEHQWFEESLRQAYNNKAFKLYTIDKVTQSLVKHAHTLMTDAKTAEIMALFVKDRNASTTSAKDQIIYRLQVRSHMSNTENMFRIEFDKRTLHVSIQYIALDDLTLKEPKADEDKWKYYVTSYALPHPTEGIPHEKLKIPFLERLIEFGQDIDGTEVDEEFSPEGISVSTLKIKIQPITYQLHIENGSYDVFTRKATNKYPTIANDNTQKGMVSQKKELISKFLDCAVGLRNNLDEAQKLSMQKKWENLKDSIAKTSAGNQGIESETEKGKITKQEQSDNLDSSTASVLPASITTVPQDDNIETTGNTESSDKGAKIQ

Tests used:
Assay in all cases: anti-FLAG co-IP, LC-MS/MS
[1] = target: Sin3 (Saccharomyces cerevisiae) (UniProt P22579)
[2] = target: T1, Mob1 (Saccharomyces cerevisiae) (UniProt P40484)
T1 sequence (looked up): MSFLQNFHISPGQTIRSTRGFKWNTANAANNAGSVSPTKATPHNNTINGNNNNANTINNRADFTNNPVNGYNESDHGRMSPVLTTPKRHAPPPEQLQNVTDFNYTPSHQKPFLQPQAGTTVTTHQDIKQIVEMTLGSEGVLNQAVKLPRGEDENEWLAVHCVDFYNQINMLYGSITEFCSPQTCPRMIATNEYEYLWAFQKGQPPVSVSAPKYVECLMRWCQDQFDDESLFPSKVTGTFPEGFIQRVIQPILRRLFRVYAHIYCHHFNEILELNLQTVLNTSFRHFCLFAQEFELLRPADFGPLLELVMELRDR

[3] = target: T2, Kss1 (Saccharomyces cerevisiae) (UniProt P14681)
T2 sequence (looked up): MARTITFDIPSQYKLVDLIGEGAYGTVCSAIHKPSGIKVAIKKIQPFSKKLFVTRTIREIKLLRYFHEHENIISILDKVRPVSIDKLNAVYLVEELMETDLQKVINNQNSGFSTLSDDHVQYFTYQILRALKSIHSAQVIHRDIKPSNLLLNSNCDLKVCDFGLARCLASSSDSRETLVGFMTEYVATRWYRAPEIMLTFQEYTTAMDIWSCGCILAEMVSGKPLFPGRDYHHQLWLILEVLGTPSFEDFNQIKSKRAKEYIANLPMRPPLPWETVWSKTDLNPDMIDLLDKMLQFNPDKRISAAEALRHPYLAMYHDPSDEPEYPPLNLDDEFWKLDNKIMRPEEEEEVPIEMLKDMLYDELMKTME

[4] = target: T3, Rad3 (Saccharomyces cerevisiae) (UniProt P06839)
T3 sequence (looked up): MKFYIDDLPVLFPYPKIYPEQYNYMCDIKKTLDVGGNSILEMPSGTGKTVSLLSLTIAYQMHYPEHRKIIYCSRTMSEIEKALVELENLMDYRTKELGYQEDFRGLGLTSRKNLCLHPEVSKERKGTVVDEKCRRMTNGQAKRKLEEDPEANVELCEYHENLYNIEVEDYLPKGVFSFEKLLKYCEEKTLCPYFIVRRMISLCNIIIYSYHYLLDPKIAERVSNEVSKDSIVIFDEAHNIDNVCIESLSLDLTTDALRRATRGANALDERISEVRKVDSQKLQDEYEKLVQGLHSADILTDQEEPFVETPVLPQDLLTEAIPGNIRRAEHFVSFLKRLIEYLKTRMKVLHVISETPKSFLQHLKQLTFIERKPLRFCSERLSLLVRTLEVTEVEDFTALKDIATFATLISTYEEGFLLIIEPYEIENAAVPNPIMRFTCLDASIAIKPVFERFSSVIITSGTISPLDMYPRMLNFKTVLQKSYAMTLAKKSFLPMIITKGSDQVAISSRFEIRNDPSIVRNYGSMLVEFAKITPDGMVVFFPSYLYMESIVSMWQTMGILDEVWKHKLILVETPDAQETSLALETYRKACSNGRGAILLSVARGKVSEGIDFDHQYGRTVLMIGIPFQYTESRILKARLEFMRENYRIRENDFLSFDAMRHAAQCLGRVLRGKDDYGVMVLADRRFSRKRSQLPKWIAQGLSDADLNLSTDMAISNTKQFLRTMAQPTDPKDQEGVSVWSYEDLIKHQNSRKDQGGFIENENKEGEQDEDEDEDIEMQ

[5] = target: T4, Bcy1 (Saccharomyces cerevisiae) (UniProt P07278)
T4 sequence (looked up): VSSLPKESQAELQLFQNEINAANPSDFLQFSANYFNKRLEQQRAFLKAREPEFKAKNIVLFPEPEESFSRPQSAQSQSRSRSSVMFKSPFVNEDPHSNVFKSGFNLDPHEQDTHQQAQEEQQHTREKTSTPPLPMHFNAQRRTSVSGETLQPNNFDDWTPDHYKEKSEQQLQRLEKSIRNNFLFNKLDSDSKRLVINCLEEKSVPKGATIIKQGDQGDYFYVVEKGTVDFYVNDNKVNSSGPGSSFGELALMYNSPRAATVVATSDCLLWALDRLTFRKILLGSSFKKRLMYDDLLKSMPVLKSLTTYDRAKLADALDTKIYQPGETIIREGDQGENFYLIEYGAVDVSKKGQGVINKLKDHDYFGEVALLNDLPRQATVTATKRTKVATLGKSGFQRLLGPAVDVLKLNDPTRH

binding [1]: binds
B1: Fkh2 (protein, Saccharomyces cerevisiae, UniProt P41813 1-862, looked up)
chain: MSSSNFNEMNELNMTQTNYGSTKYTAQHHQGVINAIISSLTAPDQPTTVSLQYSNDKNMATEIQAYAKLSGPNWTYYVKDLEVSIGRNTDPLNSALQENSDGVKNSYRVNIDLGPAKVVSRKHAIIKYNMNIGGWELHILGRNGAKVNFQRTHNGPNNPPIRLSSGTLLDIGGTQMMFILPDSDPVVAPICIEHLMPNLINMFGLEGNNNPLLRDIIKQSNYAKQRQLTSNQQIKGFKLYGSGGNAPFGSGANLGPSEQGIFNNNNNSKNKNGYFTSINPNYTASTTTSNTINPQAASPQGPPNTIIAANFVDSYKSSNAYPQALDFTSDLSHDENRNVKPPHSYATMITQAILSSPEGVISLADIYKYISSNYAYYRFAKSGWQNSIRHNLSLNKAFEKVPRRPNEPGKGMKWRISESYQQEFLNKWNTGKVGKIRRGSSVARQLQLHMAKFNSLPMEMDYRLSLNMAQPPKRQLQSHNVLEPSNNNIIEGFVQHVPSKGNLPASQQSQPPVSHQNQSQQPPPQEQRQEIQFTFADTQNRNIALARPIKTPQLQAPNSNANLNQNNMKEYKESLHPPAISISQMNRQSPNNALVSFTNACANSKIINNISDSADKSTNNNGGTKMNLPAISTSSLDENGNLEPTTTTSSGNSNSVPQTGTTTSSLAANSLRLSQPYDTLLRSPTKAFHITAMEAYTPERGSANRARSPLHSNSNNTNNNGANNSNLQTSGMENKQTGLVLDSNVLKSMESNNDNRRLTPSTSKSQNVKSSPGVWNLLQFSSTNNTPAADSGGNKRGFSINPDIKAKENENATSEKDSDSNSNDLETKDINSSPLKNQGGSTANAKELILDTDGAKISIINN

binding [2]: binds
B2: Dbf20 (protein, Saccharomyces cerevisiae, UniProt P32328 1-564, looked up)
chain: MFSRSDREVDDLAGNMSHLGFYDLNIPKPTSPQAQYRPARKSENGRLTPGLPRSYKPCDSDDQDTFKNRISLNHSPKKLPKDFHERASQSKTQRVVNVCQLYFLDYYCDMFDYVISRRQRTKQVLRYLEQQRSVKNVSNKVLNEEWALYLQREHEVLRKRRLKPKHKDFQILTQVGQGGYGQVYLAKKKDSDEICALKILNKKLLFKLNETNHVLTERDILTTTRSDWLVKLLYAFQDPESLYLAMEFVPGGDFRTLLINTRILKSGHARFYISEMFCAVNALHELGYTHRDLKPENFLIDATGHIKLTDFGLAAGTVSNERIESMKIRLEEVKNLEFPAFTERSIEDRRKIYHNMRKTEINYANSMVGSPDYMALEVLEGKKYDFTVDYWSLGCMLFESLVGYTPFSGSSTNETYENLRYWKKTLRRPRTEDRRAAFSDRTWDLITRLIADPINRVRSFEQVRKMSYFAEINFETLRTSSPPFIPQLDDETDAGYFDDFTNEEDMAKYADVFKRQNKLSAMVDDSAVDSKLVGFTFRHRDGKQGSSGILYNGSEHSDPFSTFY

binding [3]: binds
B3: Dig2/Rst2 (protein, Saccharomyces cerevisiae, UniProt Q03373 1-323, looked up)
chain: MNKEEQEDPQQEQISTVQENDPRNLQQLGMLLVSPGLDEDRLSEKMISKIKKSRDIEKNQKLLISRLSQKEEDHSGKPPTITTSPAEKTVPFKSLNHSLKRKRVPPALNFSDIQASSHLHGSKSAPPNITRFPQHKNSLRVRYMGRMAPTNQDYHPSVANSYMTATYPYPYTGLPPVPCYPYSSTPTQTHAYEGYYSPMYPGPLYNNGIIPADYHAKRKKLAGRSPHLEDLTSRKRTFVSKHHNGDPIISKTDEDIECSVTKNSLSEGASLNDDADDDNDKERIIIGEISLYDDVFKFEVRDDKNDYMKACETIWTEWHNLKK

binding [4]: binds | binding [5]: binds
B4: Met18/Mms19 (protein, Saccharomyces cerevisiae, UniProt P40469 1-1032, looked up)
chain: MTPDELNSAVVTFMANLNIDDSKANETASTVTDSIVHRSIKLLEVVVALKDYFLSENEVERKKALTCLTTILAKTPKDHLSKNECSVIFQFYQSKLDDQALAKEVLEGFAALAPMKYVSINEIAQLLRLLLDNYQQGQHLASTRLWPFKILRKIFDRFFVNGSSTEQVKRINDLFIETFLHVANGEKDPRNLLLSFALNKSITSSLQNVENFKEDLFDVLFCYFPITFKPPKHDPYKISNQDLKTALRSAITATPLFAEDAYSNLLDKLTASSPVVKNDTLLTLLECVRKFGGSSILENWTLLWNALKFEIMQNSEGNENTLLNPYNKDQQSDDVGQYTNYDACLKIINLMALQLYNFDKVSFEKFFTHVLDELKPNFKYEKDLKQTCQILSAIGSGNVEIFNKVISSTFPLFLINTSEVAKLKLLIMNFSFFVDSYIDLFGRTSKESLGTPVPNNKMAEYKDEIIMILSMALTRSSKAEVTIRTLSVIQFTKMIKMKGFLTPEEVSLIIQYFTEEILTDNNKNIYYACLEGLKTISEIYEDLVFEISLKKLLDLLPDCFEEKIRVNDEENIHIETILKIILDFTTSRHILVKESITFLATKLNRVAKISKSREYCFLLISTIYSLFNNNNQNENVLNEEDALALKNAIEPKLFEIITQESAIVSDNYNLTLLSNVLFFTNLKIPQAAHQEELDRYNELFISEGKIRILDTPNVLAISYAKILSALNKNCQFPQKFTVLFGTVQLLKKHAPRMTETEKLGYLELLLVLSNKFVSEKDVIGLFDWKDLSVINLEVMVWLTKGLIMQNSLESSEIAKKFIDLLSNEEIGSLVSKLFEVFVMDISSLKKFKGISWNNNVKILYKQKFFGDIFQTLVSNYKNTVDMTIKCNYLTALSLVLKHTPSQSVGPFINDLFPLLLQALDMPDPEVRVSALETLKDTTDKHHTLITEHVSTIVPLLLSLSLPHKYNSVSVRLIALQLLEMITTVVPLNYCLSYQDDVLSALIPVLSDKKRIIRKQCVDTRQVYYELGQIPFE

binding [2]: binds
B5: Dbf2 (protein, Saccharomyces cerevisiae, UniProt P22204 1-572, looked up)
chain: MLSKSEKNVDLLAGNMSNLSFDGHGTPGGTGLFPNQNITKRRTRPAGINDSPSPVKPSFFPYEDTSNMDIDEVSQPDMDVSNSPKKLPPKFYERATSNKTQRVVSVCKMYFLEHYCDMFDYVISRRQRTKQVLEYLQQQSQLPNSDQIKLNEEWSSYLQREHQVLRKRRLKPKNRDFEMITQVGQGGYGQVYLARKKDTKEVCALKILNKKLLFKLNETKHVLTERDILTTTRSEWLVKLLYAFQDLQSLYLAMEFVPGGDFRTLLINTRCLKSGHARFYISEMFCAVNALHDLGYTHRDLKPENFLIDAKGHIKLTDFGLAAGTISNERIESMKIRLEKIKDLEFPAFTEKSIEDRRKMYNQLREKEINYANSMVGSPDYMALEVLEGKKYDFTVDYWSLGCMLFESLVGYTPFSGSSTNETYDNLRRWKQTLRRPRQSDGRAAFSDRTWDLITRLIADPINRLRSFEHVKRMSYFADINFSTLRSMIPPFTPQLDSETDAGYFDDFTSEADMAKYADVFKRQDKLTAMVDDSAVSSKLVGFTFRHRNGKQGSSGILFNGLEHSDPFSTFY
